Results deposited as PubChem BioAssay AID1224830 (NIAID, 2016).

Test: 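Regulators of TLR4 signalling towards TNF-alpha in macrophage-like cells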 (primary screen)
Cells: human THP-1 monocytic leukaemia cells, TNF dual-luciferase reporter clone, PMA-differentiated to macrophage-like cells
Knock-down reagent: siRNA pool against human genes, 50 nM
Timing: LPS for 4 h, given about 3 days after siRNA transfection
Conditions: bacterial LPS (TLR4 ligand), 10 ng/ml
Detection: 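TNF firefly reporter luminescence divided by renilla, normalised to the plate median, then turned into a robust z-score for each replicate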
Scale: TNF reporter robust z-score: higher = stronger TNF reporter response to LPS
Active means: 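a well is active when its z-score exceeds 2.8 or falls below -1.5; control wells carry no call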
In all, the deposit lists about 18,000 reagents; below is an unselected part. In the full data, about 2,900 (16%) are marked active. 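Calls are made per well; low scores hint the gene aids the LPS response, high scores that it dampens it.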 Repeated entries: four replicate wells of each siRNA pool.

The first 13 entries, ahead of the listing:
| target gene | TNF reporter robust z-score | Call |
| --- | --- | --- |
| TPR (GeneID 7175) | 2.65 | inactive |
| TPR (GeneID 7175) | 1.4 | inactive |
| TPR (GeneID 7175) | 0.41 | inactive |
| TPR (GeneID 7175) | 2.27 | inactive |
| VSTM2A (GeneID 222008) | 0.29 | inactive |
| VSTM2A (GeneID 222008) | 1.14 | inactive |
| VSTM2A (GeneID 222008) | 2.87 | active |
| VSTM2A (GeneID 222008) | 1.79 | inactive |
| TGM5 (GeneID 9333) | -1.44 | inactive |
| TGM5 (GeneID 9333) | -1.26 | inactive |
| TGM5 (GeneID 9333) | -1.34 | inactive |
| TGM5 (GeneID 9333) | -1.37 | inactive |
| SLC13A3 (GeneID 64849) | 1.13 | inactive |

The list itself, from the first entry:
| target gene | TNF reporter robust z-score | Call |
| --- | --- | --- |
| TPR (GeneID 7175) | 2.65 | inactive |
| TPR (GeneID 7175) | 1.4 | inactive |
| TPR (GeneID 7175) | 0.41 | inactive |
| TPR (GeneID 7175) | 2.27 | inactive |
| VSTM2A (GeneID 222008) | 0.29 | inactive |
| VSTM2A (GeneID 222008) | 1.14 | inactive |
| VSTM2A (GeneID 222008) | 2.87 | active |
| VSTM2A (GeneID 222008) | 1.79 | inactive |
| TGM5 (GeneID 9333) | -1.44 | inactive |
| TGM5 (GeneID 9333) | -1.26 | inactive |
| TGM5 (GeneID 9333) | -1.34 | inactive |
| TGM5 (GeneID 9333) | -1.37 | inactive |
| SLC13A3 (GeneID 64849) | 1.13 | inactive |
| SLC13A3 (GeneID 64849) | 3.89 | active |
| SLC13A3 (GeneID 64849) | 2.56 | inactive |
| SLC13A3 (GeneID 64849) | 4.46 | active |
| CCDC62 (GeneID 84660) | 0.53 | inactive |
| CCDC62 (GeneID 84660) | 1.44 | inactive |
| CCDC62 (GeneID 84660) | 2.27 | inactive |
| CCDC62 (GeneID 84660) | 0.7 | inactive |
| NEK8 (GeneID 284086) | -0.09 | inactive |
| NEK8 (GeneID 284086) | 0.33 | inactive |
| NEK8 (GeneID 284086) | 0.37 | inactive |
| NEK8 (GeneID 284086) | 0.5 | inactive |
| USP36 (GeneID 57602) | -0.51 | inactive |
| USP36 (GeneID 57602) | -0.06 | inactive |
| USP36 (GeneID 57602) | -0.47 | inactive |
| USP36 (GeneID 57602) | -0.3 | inactive |
| BICD2 (GeneID 23299) | 1.59 | inactive |
| BICD2 (GeneID 23299) | 2.04 | inactive |
| BICD2 (GeneID 23299) | 2.3 | inactive |
| BICD2 (GeneID 23299) | 1.58 | inactive |
| GUK1 (GeneID 2987) | -0.23 | inactive |
| GUK1 (GeneID 2987) | 0.81 | inactive |
| GUK1 (GeneID 2987) | 0.98 | inactive |
| GUK1 (GeneID 2987) | 0.52 | inactive |
| IQSEC3 (GeneID 440073) | -0.03 | inactive |
| IQSEC3 (GeneID 440073) | -0.11 | inactive |
| IQSEC3 (GeneID 440073) | 0.81 | inactive |
| IQSEC3 (GeneID 440073) | 1.39 | inactive |
| SPAG17 (GeneID 200162) | 0.14 | inactive |
| SPAG17 (GeneID 200162) | 1.36 | inactive |
| SPAG17 (GeneID 200162) | 1.15 | inactive |
| SPAG17 (GeneID 200162) | 1.03 | inactive |
| CHST15 (GeneID 51363) | 0.27 | inactive |
| CHST15 (GeneID 51363) | 0.17 | inactive |
| CHST15 (GeneID 51363) | 2 | inactive |
| CHST15 (GeneID 51363) | 2.16 | inactive |
| CCDC178 (GeneID 374864) | 1.26 | inactive |
| CCDC178 (GeneID 374864) | 0.38 | inactive |
| CCDC178 (GeneID 374864) | -1.13 | inactive |
| CCDC178 (GeneID 374864) | -0.82 | inactive |
| OR4B1 (GeneID 119765) | 1.56 | inactive |
| OR4B1 (GeneID 119765) | 2.29 | inactive |
| OR4B1 (GeneID 119765) | -0.59 | inactive |
| OR4B1 (GeneID 119765) | -0.37 | inactive |
| CYRIA (GeneID 81553) | -0.47 | inactive |
| CYRIA (GeneID 81553) | 0.55 | inactive |
| CYRIA (GeneID 81553) | -0.66 | inactive |
| CYRIA (GeneID 81553) | -0.32 | inactive |
| GLIPR1 (GeneID 11010) | 1.42 | inactive |
| GLIPR1 (GeneID 11010) | 1.29 | inactive |
| GLIPR1 (GeneID 11010) | 0.55 | inactive |
| GLIPR1 (GeneID 11010) | 1.59 | inactive |
| DCAF8L1 (GeneID 139425) | -0.89 | inactive |
| DCAF8L1 (GeneID 139425) | -0.52 | inactive |
| DCAF8L1 (GeneID 139425) | 0.31 | inactive |
| RIC8B (GeneID 55188) | -0.37 | inactive |
| RIC8B (GeneID 55188) | -0.59 | inactive |
| RIC8B (GeneID 55188) | -0.12 | inactive |
| RIC8B (GeneID 55188) | -0.85 | inactive |
| ZNF74 (GeneID 7625) | 0.52 | inactive |
| ZNF74 (GeneID 7625) | 0.17 | inactive |
| ZNF74 (GeneID 7625) | -0.12 | inactive |
| ZNF74 (GeneID 7625) | 0.13 | inactive |
| MRPS10 (GeneID 55173) | 3.6 | active |
| MRPS10 (GeneID 55173) | 5.06 | active |
| MRPS10 (GeneID 55173) | 0.93 | inactive |
| MRPS10 (GeneID 55173) | 7.58 | active |
| CDCA7 (GeneID 83879) | -0.9 | inactive |
| CDCA7 (GeneID 83879) | -0.28 | inactive |
| CDCA7 (GeneID 83879) | -0.75 | inactive |
| CDCA7 (GeneID 83879) | 0.22 | inactive |
| PFDN2 (GeneID 5202) | -0.66 | inactive |
| PFDN2 (GeneID 5202) | 0.05 | inactive |
| PFDN2 (GeneID 5202) | 0 | inactive |
| PRSS48 (GeneID 345062) | 2.55 | inactive |
| PRSS48 (GeneID 345062) | -0.17 | inactive |
| PRSS48 (GeneID 345062) | 1.34 | inactive |
| PRSS48 (GeneID 345062) | 3.03 | active |
| PAXX (GeneID 286257) | -0.84 | inactive |
| PAXX (GeneID 286257) | -0.37 | inactive |
| PAXX (GeneID 286257) | -0.39 | inactive |
| PAXX (GeneID 286257) | -0.69 | inactive |
| LRRC27 (GeneID 80313) | -0.83 | inactive |
| LRRC27 (GeneID 80313) | -0.34 | inactive |
| LRRC27 (GeneID 80313) | -0.37 | inactive |
| LRRC27 (GeneID 80313) | -0.69 | inactive |
| FAM20A (GeneID 54757) | – | inactive |
| FAM20A (GeneID 54757) | -0.66 | inactive |
| FAM20A (GeneID 54757) | -1.13 | inactive |
| FAM20A (GeneID 54757) | -0.49 | inactive |
| FAM20A (GeneID 54757) | -0.4 | inactive |
| SP5 (GeneID 389058) | -1.1 | inactive |
| SP5 (GeneID 389058) | -1.11 | inactive |
| SP5 (GeneID 389058) | 0.25 | inactive |
| SP5 (GeneID 389058) | -0.48 | inactive |
| MEIG1 (GeneID 644890) | -0.85 | inactive |
| MEIG1 (GeneID 644890) | -0.27 | inactive |
| MEIG1 (GeneID 644890) | 0.51 | inactive |
| MEIG1 (GeneID 644890) | -0.34 | inactive |
